Reference: PubChem BioAssay AID2551 (National Center for Advancing Translational Sciences (NCATS), 2010)
In all, about 310,000 compounds went through this assay and about 17,000 (5.5%) were called active. This list was built around the results that the source calls inconclusive (neither active nor inactive); the mix of calls is not that of the screen. The call rests on the fitted dose curve; in most records, active means well fitted inhibition curve with a large enough effect; inconclusive means small, poorly fitted or top-dose-only effect, or effect the other way; inactive means no such curve, though single readings can be large or run the other way. Potencies of inconclusive entries are doubtful fits and often do not repeat.

Sequences of proteins named here, by UniProt entry; tags and fusion partners are left off. A change or cut given only in a name is not applied to a line headed by its entry.
UniProt P51450: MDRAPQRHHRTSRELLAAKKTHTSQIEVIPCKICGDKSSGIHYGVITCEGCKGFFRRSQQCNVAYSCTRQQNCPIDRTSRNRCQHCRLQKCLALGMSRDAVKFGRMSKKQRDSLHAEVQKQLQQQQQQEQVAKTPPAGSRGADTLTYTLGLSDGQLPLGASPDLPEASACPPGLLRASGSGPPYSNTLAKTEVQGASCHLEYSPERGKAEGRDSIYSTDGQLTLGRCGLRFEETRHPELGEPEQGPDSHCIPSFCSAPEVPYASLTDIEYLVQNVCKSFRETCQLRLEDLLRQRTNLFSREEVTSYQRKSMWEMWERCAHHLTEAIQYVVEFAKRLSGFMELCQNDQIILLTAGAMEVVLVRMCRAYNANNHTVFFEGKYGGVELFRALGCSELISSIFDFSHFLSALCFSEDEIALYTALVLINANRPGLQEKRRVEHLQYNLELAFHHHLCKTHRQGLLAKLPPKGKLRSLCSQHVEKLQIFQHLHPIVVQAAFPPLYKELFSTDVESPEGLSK

The molecules below were run against Nuclear receptor ROR-gamma (Mus musculus) (UniProt P51450) (assay: qHTS for inhibitors of ROR gamma transcriptional activity). Conditions: Drosophila S2 Gal4-RORgamma UAS-luciferase reporter, 20 h; series mostly up to 53.6 µM.
Outline: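 In this cell-based reporter format, copper sulfate (700 uM final) drives Gal4–ROR gamma fusion expression from a metallothionein promoter in Drosophila Schneider cells; compounds preincubated 1 hr, reporter read after 20 hr at ambient temperature.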
Further: nearly all actives have a fitted effect of over 60% in size.
Potency means the concentration at half of the fitted maximal effect.

Row | Compound | Potency
1 | O=S(=O)(c1ccc(F)cc1)N1CN(Cc2ccco2)c2nc3ccccc3nc21 | inconclusive: 11.2 µM [activator, partial curve]
2 | Cc1ccc(-c2nn(-c3ccccc3)cc2/C=C/C(=O)Nc2nccs2)cc1 | inconclusive: 10 µM [inhibitor, single point]
3 | COC(=O)c1cc(OC)c(OC)cc1NC(=O)Cc1cccs1 | inconclusive: 3.16 µM [inhibitor, full curve]
4 | Cc1ccc(Cc2cnc(NC(=O)CN3CCOCC3)s2)cc1Cl | inconclusive: 35.5 µM [inhibitor, single point]
5 | O=C(/C=C/c1ccc(F)cc1)NCCc1ccc2c(c1)OCCO2 | inconclusive: 0.501 µM [activator, single point]
6 | CC1CCN(c2nc(-c3ccncc3)nc3ccccc23)CC1 | active: 11.2 µM
7 | CCCCN1C(=O)c2ccc(C(=O)Nc3ccc(C)c(S(=O)(=O)N(C)C)c3)cc2C1=O | inconclusive: 8.91 µM [activator, partial curve, poor fit]
8 | COc1ccc(C(c2c(NC(=O)c3ccccc3)sc(C)c2C)N2CCN(CCO)CC2)cc1 (configuration not stated) | inconclusive: 11.2 µM [activator, partial curve]
9 | Cc1ccccc1Nc1c(N)c(=O)oc2ccccc12 | inconclusive: 0.794 µM [inhibitor, single point]
10 | c1ccc(CCn2cnc3ccccc32)cc1 | active: 12.6 µM
11 | Cc1ccc(/C=C(\C#N)c2nc3ccccc3[nH]2)s1 | inconclusive: 14.1 µM [inhibitor, single point]
12 | Cc1c(OCC(=O)NCC(O)c2ccccc2)ccc2c(-c3ccccc3)cc(=O)oc12 (configuration not stated) | inconclusive: 22.4 µM [activator, single point]
13 | CN(Cc1ccccc1)C(=O)c1ccc(NC(=O)C2=CSCCO2)cc1 | inconclusive: 10 µM [activator, partial curve]
14 | Nc1nc(C23CC4CCC(CC(C4)C2)C3)cs1 | inconclusive: 5.01 µM [inhibitor, partial curve]
15 | O=C(CSc1ncccn1)NCc1ccccc1Cl | inconclusive: 12.6 µM [inhibitor, single point]
16 | CCOC(=O)c1ccc(NC(=S)N2CCCC2c2ccc(OC)c(OC)c2)cc1 (configuration not stated) | inconclusive: 35.5 µM [inhibitor, single point]
17 | CCn1c(CSc2nc3ccccc3s2)n[nH]c1=S | active: 2.51 µM
18 | CC1C(c2ccccc2)N(C)C(c2ccccc2)C(C)C1(O)C#Cc1ccccc1 (configuration not stated) | active: 15.8 µM
19 | Cc1ccc(S(=O)(=O)NCC(C)n2cncn2)cc1 (configuration not stated) | inconclusive: 35.5 µM [inhibitor, single point]
20 | COCCn1c(=O)c(-c2ccccc2)nc2cncnc21 | inactive
21 | CCc1ccc(-c2cc(C)no2)cc1S(=O)(=O)N1CCN(C(=O)c2ccco2)CC1 | inactive
22 | C[C@@H](C(=O)OCC(=O)Nc1cc(S(=O)(=O)N2CCOCC2)ccc1Cl)N1C(=O)C2CCCCC2C1=O (some centres not stated) | inconclusive: 12.6 µM [activator, single point]
23 | Cc1occc1-c1nnc(SCC(=O)NC(C)(C)C)n1CC(C)C | inconclusive: 20 µM [activator, single point]
24 | COC(=O)c1ccc(NS(=O)(=O)c2ccc3c(c2)n(C)c(=O)n3C)cc1 | inconclusive: 10 µM [activator, partial curve]

Row | Compound | Potency
25 | CCc1c(C)[nH]c(=S)c(C#N)c1C | inconclusive: 35.5 µM [inhibitor, single point]
26 | CCOC(=O)N1CCC(NS(=O)(=O)c2ccccc2)CC1 | inconclusive: 17.8 µM [activator, single point]
27 | CCNc1nc(Oc2ccc(F)cc2)cc(C(F)(F)F)n1 | inactive
28 | N/C(Cc1ccc([N+](=O)[O-])cc1)=N\OC(=O)C(c1ccccc1)c1ccccc1 | inconclusive: 20 µM [inhibitor, single point]
29 | CN(C)S(=O)(=O)c1ccc(C(=O)N2CCCC2c2nc3ccccc3s2)cc1 (configuration not stated) | inconclusive: 6.31 µM [activator, single point]
30 | CC1(C)CCC(=O)N2CC[C@H]3C[C@H](OC(=O)Nc4ccc5c(c4)OCO5)C[C@@H]1[C@H]32 | inconclusive: 4.47 µM [activator, partial curve]
31 | COc1ccc(Cl)cc1NC(=S)NC1CCCC1 | active: 10 µM
32 | CC(C)(C)/C(O)=C/c1nc2ccccc2[nH]c1=O | inactive
33 | Cc1ccsc1/C=N/NC(=O)Cn1nc(C)c([N+](=O)[O-])c1C | inconclusive: 11.2 µM [inhibitor, partial curve]
34 | CCCOc1ccc(-c2cn3ccccc3n2)cc1 | active: 4.47 µM
35 | CC1(C)CC(=O)C(C=NCCN2CCN(C(=O)NC34CC5CC(CC(C5)C3)C4)CC2)=C(O)C1 | inactive
36 | Cc1cccc(CNc2ncnc3ccc(-c4cccc(C#N)c4)cc23)c1 | inconclusive: 35.5 µM [inhibitor, single point]
37 | CCCN(CCC)C(=O)c1cc(-c2ccc3c(c2)OCO3)nc2ccccc12 | inactive
38 | Nc1nc(-c2ccccc2)cc(-c2ccccc2)n1 | inactive
39 | O=C(c1cc2ncc(CCCl)cn2n1)N1CCCCCC1 | inconclusive: 2.82 µM [activator, full curve]
40 | CC(/C=N/NC(=O)c1c(Br)cnn1C)=C\c1ccccc1 | inactive
41 | O=C1c2ccccc2C(=O)C1c1ccnc2ccccc12 | inconclusive: 10 µM [inhibitor, single point]
42 | O=C1NC(c2ccccc2)(C(F)(F)F)SC2=CCCCCN12 (configuration not stated) | inactive
43 | CN(CCO)S(=O)(=O)c1ccc2c(c1)C(=O)c1cc(S(=O)(=O)N(C)CCO)ccc1-2 | inactive
44 | Cc1[nH]c(=S)c(C#N)c(C)c1Cc1ccccc1 | active: 3.55 µM
45 | COc1cccc(C(=O)Nc2cc(S(=O)(=O)N3CCCCC3)ccc2OC)c1 | inactive
46 | COc1ccc(-n2cnnc2SCC(=O)Nc2cc(S(=O)(=O)N3CCCCC3)ccc2C)cc1 | inconclusive: 17.8 µM [activator, single point]
47 | CCOC(=O)Cc1csc(NC(=O)C2C3C=CC(C3)C2C(=O)O)n1 (configuration not stated) | inconclusive: 6.31 µM [inhibitor, single point]

As entered above.
Potency with `Cc1ccsc1/C=N/NC(=O)Cn1nc(C)c([N+](=O)[O-])c1C` reads inconclusive: 11.2 µM [inhibitor, partial curve]
Potency with `CCCOc1ccc(-c2cn3ccccc3n2)cc1` reads active: 4.47 µM

Reprinted at random: 2 compounds from above, in no set order.
Row | Compound | Potency
36 | Cc1cccc(CNc2ncnc3ccc(-c4cccc(C#N)c4)cc23)c1 | inconclusive: 35.5 µM [inhibitor, single point]
30 | CC1(C)CCC(=O)N2CC[C@H]3C[C@H](OC(=O)Nc4ccc5c(c4)OCO5)C[C@@H]1[C@H]32 | inconclusive: 4.47 µM [activator, partial curve]
